Consider one substance from US20160257744A1.

Chains of the proteins cited; added tags and fusions are not shown. Residues count along the entry.
UniProt P05113, residues 20-134: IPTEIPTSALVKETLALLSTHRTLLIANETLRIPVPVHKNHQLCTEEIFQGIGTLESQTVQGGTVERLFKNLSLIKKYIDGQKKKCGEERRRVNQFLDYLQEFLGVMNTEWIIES

These are yes or no findings as the source states them, for the method shown. Some binding calls cover weakened binding; strength is not graded here.

For the assay, the target named is T1, IL5 receptor α (UniProt Q01344).
T1 sequence (looked up): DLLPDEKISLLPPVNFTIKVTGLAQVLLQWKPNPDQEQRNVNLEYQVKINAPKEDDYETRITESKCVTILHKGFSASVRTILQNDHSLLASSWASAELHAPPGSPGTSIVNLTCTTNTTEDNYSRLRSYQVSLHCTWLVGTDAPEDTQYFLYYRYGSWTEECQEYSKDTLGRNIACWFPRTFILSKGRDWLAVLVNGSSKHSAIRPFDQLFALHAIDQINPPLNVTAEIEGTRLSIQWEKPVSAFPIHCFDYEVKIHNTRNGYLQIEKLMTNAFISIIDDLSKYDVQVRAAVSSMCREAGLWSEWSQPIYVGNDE
In words: ELISA: biotinylated IL5 on coated IL5 receptor, streptavidin-HRP [panel B]. For orientation: ELISA stands for enzyme-linked immunosorbent assay.

As for “interleukin 5 (IL5) (from UniProt P05113 20-134) (ligand)”, the binding result is “binds”.
